Laboratory results reported in US20170239173A1, “TRANSDERMAL ABSORPTION ENHANCER AND TRANSDERMAL ABSORPTION ENHANCEMENT AID” (ASAHI KASEI KABUSHIKI KAISHA, priority 2014, published 2017).

Test: Odor of the obtained equimolar salt
Conditions: equimolar salt as obtained

## COc1cc(C(O)C(=O)[O-])ccc1O.C[N+](C)(C)CCO (centres unmarked) [Production Example 10]
  Odor: ◯ (Vanilla-like)

## COc1cc(C(O)C(=O)O)ccc1O.N=C(N)N (centres unmarked) [Production Example 32]
  Odor: ◯ (Vanilla-like)
